# Assay results as given in PubChem BioAssay AID504444 (National Center for Advancing Translational Sciences (NCATS), 2011).
# Among all 360,000 compounds or so, about 7,500 (2.1%) were called active. This list was built around the results that the source calls inconclusive (neither active nor inactive); the mix of calls is not that of the screen. Calls follow the shape of the dose curve; as a rule, active = well fitted inhibition curve with a large enough effect; inconclusive = small, poorly fitted or top-dose-only effect, or effect the other way; inactive = flat fitted curve, though single readings scatter. Potencies beside an inconclusive call are fits to weak or partial responses and may not hold up.
# Experiment: Nrf2 qHTS screen for inhibitors; also: nearly all actives have a fitted effect of over 60% in size
# Conditions: A549 ARE-Fluc reporter, luciferase luminescence, 18-24 h; activity change, negative = inhibition: at 46 µM (top of the series)
# Summary of the method: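 In this cell-based qHTS, ARE-driven firefly luciferase in A549 cells reports Nrf2 activity; the luminescent signal after BugLite lysis is the measured value, with a prior CellTiter-Fluor read for cell health.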
# % is scaled to controls: 0 for no effect and ±100 for the full control effect; potency is read from the fitted curve at half-maximal effect.
SMILES,Potency,"activity change, negative = inhibition"
CN(Cc1cnccn1)Cc1cn(Cc2ccccc2)nc1-c1ccc2c(c1)OCO2,"inconclusive: 0.58 µM [activator, full curve]",
FC(F)(F)c1cccc(NC(=S)NC2CCCC2)c1,"inconclusive: 20.6 µM [falling, single point]",
Cc1cc(N)n2ncc(-c3ccc(Cl)cc3)c2n1,"inconclusive: 0.411 µM [activator, full curve, poor fit]",
O=C(Nc1nc(-c2cccnc2)cs1)c1cccc([N+](=O)[O-])c1,"inconclusive: 1.84 µM [falling, partial curve, poor fit]",
Cn1c(=O)cc(OCC(=O)NCc2ccccn2)c2ccccc21,"inconclusive: 4.11 µM [falling, partial curve, poor fit]",
COc1ccc(CC(=O)Nc2sc3c(c2C(=O)Nc2cccc(C)c2)CCCCC3)cc1,"inconclusive: 29.1 µM [falling, single point]",
Cc1ccc(Nc2nc(CSc3nnc(-c4ccncc4)n3-c3ccccc3C)cs2)cc1,active: 9.2 µM,
FC(F)Sc1ccc(-n2cc(-c3ccc(Cl)cc3)[n+]3c2CCC3)cc1,inactive,
CCOc1ccc(Nc2cc(C)nc3c(C)cccc23)cc1,"inconclusive: 0.0052 µM [falling, full curve, poor fit]",
Cc1cc(Nc2ccccc2C(=O)O)n(-c2ccc([N+](=O)[O-])cc2)n1,active: 6.51 µM,
CCc1nnc(NCC(=O)N2CCc3ccccc32)s1,,inconclusive: 39% [activator]
CCN1C(=NCCc2ccccn2)N[C@@H](c2cccc(C(F)(F)F)c2)C(C(=O)OC)=C1C,inactive,
COc1ccc(C=NNC(=S)Nc2ccc(F)cc2)cc1OC,"inconclusive: 23.1 µM [falling, single point]",
Clc1ccc(/C=N/Nc2ccccn2)cc1,"inconclusive: 20.6 µM [activator, partial curve]",
O=C(Cn1cnc2ccccc2c1=O)c1ccc2c(c1)OCCO2,"inconclusive: 10.3 µM [activator, partial curve]",
C[n+]1c2n(c3ccccc31)N=C(c1ccc(Br)cc1)CS2,"inconclusive: 2.06 µM [falling, full curve, poor fit]",
CCOc1ccc(CNC(=O)Nc2ccc3c(c2)N(C)C(=O)c2ccccc2S3)cc1,"inconclusive: 23.1 µM [falling, single point]",
NC1=NN=C(c2ccc3c(c2)OCCO3)CS1,"inconclusive: 1.3 µM [activator, full curve]",
O=C(NCCc1ccccc1Cl)C1CC(=O)N(C2CCCCC2)C1 (stereo not given),"inconclusive: 0.366 µM [activator, full curve, poor fit]",
Cc1cnn(CCC(=O)NNC(=S)Nc2ccc(F)cc2)c1,inactive,
c1ccc(Sc2cccc3ccccc23)c(CNC2=NCCN2)c1,inactive,
O=C(c1ccc(Cl)cc1Cl)N1CCN(c2ccc(N3CCOCC3)nn2)CC1,"inconclusive: 29.1 µM [falling, single point]",
CCOC(=O)Nc1ccc2c(c1)C(=NO)c1ccccc1-2,"inconclusive: 16.4 µM [activator, partial curve]",
Cc1cc(C)nc(Sc2ccc(C=O)cc2[N+](=O)[O-])n1,inactive,

SMILES,Potency,"activity change, negative = inhibition"
CCOc1ccc(C(=O)Nc2nc(-c3ccc(Br)cc3)ns2)cc1,inactive,
S=C(Nc1ccccn1)Nc1ccccc1Cl,"inconclusive: 1.64 µM [activator, full curve, poor fit]",
Cc1cc(OC(=O)c2c(Cl)cccc2Cl)nc(C)n1,"inconclusive: 5.8 µM [falling, full curve, poor fit]",
COC(=O)C(NC(=O)CCc1c(C)nc2cc(-c3cccc(F)c3)nn2c1C)C(C)C (stereo not given),"inconclusive: 4.11 µM [falling, full curve]",
Cc1ccc2c(=O)cc(C(=O)Nc3ccc(S(=O)(=O)N4CCCCC4)cc3)oc2c1,inactive,
COc1cccc(N2CCN(CC(=O)Nc3ccc(S(=O)(=O)N4CCCCCC4)cc3)CC2)c1,inactive,
CCC(Sc1n[nH]c(=O)[nH]c1=O)C(=O)OCc1ccccc1 (stereo not given),"inconclusive: 6.51 µM [falling, partial curve, poor fit]",
O=S(=O)(c1ccccc1)C1(S(=O)(=O)c2ccccc2)CCCC1,inactive,
O=C(CN1CCC(C(=O)c2ccc3c(c2)OCCO3)CC1)NCc1ccc(F)cc1,"inconclusive: 8.2 µM [falling, partial curve]",
CCCn1cc(S(=O)(=O)c2ccccc2)c(=O)c2cc(F)c(N3CCCCCC3)cc21,"inconclusive: 20.6 µM [falling, single point]",
O=C(Cn1cc2c(n1)CCCC2)Nc1cc(C(F)(F)F)ccc1Cl,inactive,
CSc1nc2sc3c(c2c(=O)[nH]1)CCC3,"inconclusive: 23.1 µM [falling, single point]",
Cc1nn(Cc2ccc(C(=O)Nc3ccccc3C(F)(F)F)o2)c(C)c1Br,"inconclusive: 25.9 µM [falling, partial curve, poor fit]",
Cc1ccc(NN=C2c3ccccc3-c3ccccc32)cc1,"inconclusive: 23.1 µM [activator, partial curve]",
FC(F)(F)c1ccc(N2CCOCC2)c(Nc2nc3ccccc3n3cnnc23)c1,active: 20.6 µM,
CC(Nc1nc(-c2ccc(F)cc2)cs1)c1nc2cc(Cl)c(Cl)cc2n1CCCO (stereo not given),"inconclusive: 29.1 µM [falling, single point]",
CCCC(=O)NC(c1ccc(C(C)C)cc1)c1ccc2cccnc2c1O (stereo not given),"inconclusive: 6.51 µM [falling, single point]",
Cc1nc(SCc2ccccc2Cl)c(C#N)c(C)c1C,inactive,
Cn1c(SCC(=O)N2CCc3ccccc3C2)nnc1-c1ccncc1,inactive,
O=C(CSc1nnc(CNC(=O)c2ccccc2)o1)NCc1ccccc1Cl,inactive,
CC1=NN(c2ccccc2)C(=O)/C1=C/c1ccc(Cl)cc1,inactive,
COc1cc(COc2ccc3c(C)c(Cc4ccccc4)c(=O)oc3c2C)cc(OC)c1OC,"inconclusive: 29.1 µM [falling, single point]",
COc1ccc(OC)c(C(=O)CSc2nc3ncccc3[nH]2)c1,inactive,
Cc1nn(-c2ccccc2)c(N2CCCC2)c1/C=N/NC(=S)Nc1ccccc1C(F)(F)F,"inconclusive: 20.6 µM [falling, single point]",

SMILES,Potency,"activity change, negative = inhibition"
O=S(=O)(c1ccccc1)c1nnn2c1nc(N1CCN(c3ccccc3)CC1)c1cc(Cl)ccc12,inactive,
Oc1ccc(N=C/C=C/c2cccc(Br)c2)cc1-c1nc2ccccc2s1,"inconclusive: 10.3 µM [activator, partial curve]",
CCCCCCCNC(=O)C1(CC2CC(c3cccc(Br)c3)=NO2)CCN(C(=O)CCCCCBr)CC1 (stereo not given),"inconclusive: 29.1 µM [falling, single point]",
O=C(c1ccc(OC(F)(F)F)cc1)c1ncc[nH]1,"inconclusive: 10.3 µM [activator, partial curve, poor fit]",
COc1ccc(-c2nn(-c3ccccc3)cc2C(=O)Nc2nc(CC(C)=O)ns2)cc1,"inconclusive: 9.2 µM [falling, partial curve, poor fit]",
Cc1ccc(NC(=O)COC(=O)c2c(-c3ccccc3)noc2C)cc1,"inconclusive: 29.1 µM [falling, single point]",
CCCCN(C)C(=O)c1oc2ccc(S(=O)(=O)N3CCCCCC3)cc2c1C,active: 16.4 µM,
CCOC(=O)C1CCCN(C(=O)Cn2ncc3c(C)n(Cc4ccc(F)cc4)c(C)c3c2=O)C1 (stereo not given),"inconclusive: 8.2 µM [falling, partial curve]",
CCCNC(=O)Cn1ncc2c3ccccc3n(CCC)c2c1=O,"inconclusive: 29.1 µM [activator, single point]",
c1ccc2oc(Cc3ccc(Cc4nc5ccccc5o4)cc3)nc2c1,active: 25.9 µM,
O=C(c1cc2c(s1)CCCC2)N1CCN(S(=O)(=O)c2ccccc2C(F)(F)F)CC1,"inconclusive: 9.2 µM [falling, partial curve]",
Nc1ccc(S(=O)(=O)N2CCN(S(=O)(=O)c3ccc4c(c3)OCCO4)CC2)cc1,inactive,
Cc1ccc(NS(=O)(=O)c2ccc(-c3coc(C)n3)cc2)c(C)c1,"inconclusive: 20.6 µM [falling, partial curve, poor fit]",
CC(=O)Nc1ccc(C=NNc2ccc([N+](=O)[O-])cn2)cc1,"inconclusive: 9.2 µM [activator, partial curve]",
CCN(C(=O)CSc1nc(C)nc2sc(C)c(C)c12)C1CCS(=O)(=O)C1 (stereo not given),"inconclusive: 13 µM [falling, partial curve, poor fit]",
CC1=C(C(N)=O)C(c2cccnc2)n2nc(SCc3ccccc3Cl)nc2N1 (stereo not given),"inconclusive: 0.184 µM [falling, full curve, poor fit]",
CC(=O)c1c(C)[nH]c(C(=O)COc2cc(C)cc(C)c2)c1C,"inconclusive: 18.4 µM [falling, single point]",
O=c1[nH]c(=O)n(C(c2ccccc2)(c2ccccc2)c2ccccc2)cc1N(CCO)CCO,inactive,
Cc1ccc(C2NC(c3ccc4c(c3)OCO4)=CC(c3cc(Br)ccc3O)N2)cc1 (stereo not given),inactive,
CC(C)OC(=O)c1c(NS(=O)(=O)c2ccccc2)sc2c1CCCC2,"inconclusive: 16.4 µM [falling, single point]",
O=C(Nc1ccc2nc(SCCOc3ccccc3Cl)sc2c1)c1ccco1,"inconclusive: 4.61 µM [falling, partial curve]",
COc1cc(/C=C(\NC(=O)c2ccccc2)C(=O)Nc2cccc(O)c2)c([N+](=O)[O-])cc1OC,"inconclusive: 29.1 µM [activator, partial curve, poor fit]",

# Complete entries, quoted from the list.
# `Cc1ccc(C2NC(c3ccc4c(c3)OCO4)=CC(c3cc(Br)ccc3O)N2)cc1` (stereo not given) is listed with Potency: inactive
# `CCN(C(=O)CSc1nc(C)nc2sc(C)c(C)c12)C1CCS(=O)(=O)C1` (stereo not given) is listed with Potency: inconclusive: 13 µM [falling, partial curve, poor fit]
# `CC(C)OC(=O)c1c(NS(=O)(=O)c2ccccc2)sc2c1CCCC2` is listed with Potency: inconclusive: 16.4 µM [falling, single point]
